Assay results reported in PubChem BioAssay AID540276 (National Center for Advancing Translational Sciences (NCATS), 2011).
Hit rate of the full screen: of about 300,000 compounds, about 5,400 (1.8%) were called active. The inconclusive results got no clear call from the source; some entries with a clear call stand among them for comparison. Calls follow the shape of the full dose curve; tested in HEK293 cells. A potency beside an inconclusive call is a rough fit, not a confirmed value.

Experiment: qHTS for inhibitors of binding or entry into cells for Marburg Virus
Settings: Marburg virus pseudotyped entry inhibition, cell reporter; activity change, negative = inhibition: at 37.8 µM (top of the series) unless noted
% is scaled to controls: 0 for no effect and ±100 for the full control effect; potency is read from the fitted curve at half-maximal effect.

| Structure (SMILES) | activity change, negative = inhibition | Potency |
| --- | --- | --- |
| O=C(O)c1cccc2c1-c1ccc([N+](=O)[O-])cc1C2=O | inactive: 22.1% |  |
| O=C(CC1=NCCNC(c2ccccc2)C1)c1ccccc1O (stereo unspecified) |  | inconclusive: 6.31 µM [activator, partial curve, poor fit] |
| Cc1ccc2c(c1)c1c(n2CC(O)Cn2ccnc2C)C(=O)CCC1 (stereo unspecified) |  | inconclusive: 10 µM [inhibitor, partial curve, poor fit] |
| COc1ccc(NC(=O)CC23CC4CC(CC(Br)(C4)C2)C3)c(OC)c1 |  | inconclusive: 12.6 µM [activator, partial curve] |
| Brc1ccc2ncnc(Nc3cccc4ccccc34)c2c1 |  | inconclusive: 32.6 µM [inhibitor, single point] |
| CCC1CCc2c(sc(NC(=O)C3CC=CCC3C(=O)O)c2C#N)C1 (stereo unspecified) |  | inconclusive: 5.62 µM [activator, full curve, poor fit] |
| Cc1nc(Cl)c2c(n1)NC1=C(O2)C(=O)CCC1 | inactive: -1.86% [at 46.1 µM] |  |
| COc1ccc(C(C)=O)cc1CC(C(=O)c1ccccc1)N(C)C (stereo unspecified) |  | inconclusive: 0.158 µM [activator, full curve, poor fit] |
| O=C1NC(O)=NC1(c1ccccc1)c1ccccc1 |  | inconclusive: 29.1 µM [inhibitor, single point] |
| CCC(CC)C(=O)Nc1nc(-c2ccc3c(c2)CCN3C(=O)C2CC2)c(C)s1 |  | inconclusive: 14.1 µM [inhibitor, partial curve] |
| Cc1ccccc1NC(=O)Cc1nc(COC(=O)c2cc(Cl)ccc2O)cs1 |  | inconclusive: 35.5 µM [activator, single point] |
| COc1cc(/C=C2\C(=O)N(c3ccccc3)N=C2C)ccc1Oc1ccc([N+](=O)[O-])cc1[N+](=O)[O-] | inactive: 3% |  |
| C[C@]12CC[C@H](OC(=O)CCC(=O)O)CC1=CCC1C2CC[C@@]2(C)C1CC[C@@H]2OC(=O)CCC(=O)O (stereo partly specified) |  | inconclusive: 3.16 µM [inhibitor, single point] |
| CNC(=O)CSc1nnc(-c2ccco2)n1-c1cccc(C)c1 |  | inconclusive: 2 µM [inhibitor, partial curve, poor fit] |
| Cc1ccc(S(=O)(=O)N2CCCC(C(=O)NC3CCCC3)C2)cc1Cl (stereo unspecified) | inconclusive: 11.6% [activator] [at 46.1 µM] |  |
| NNC(=O)CCN1CCN(C(c2ccccc2)c2ccccc2)CC1 |  | inconclusive: 22.4 µM [inhibitor, partial curve, poor fit] |
| CCN1CCN(c2ncnc3c2oc2nc(C(C)C)c4c(c23)CCC4)CC1 | inactive: 0.208% |  |
| NC(=O)c1ccccc1Nc1nc2nc3ccccc3c(=O)n2cc1Br |  | inconclusive: 35.5 µM [inhibitor, single point] |
| CCOc1cc(CN2CCN(S(=O)(=O)Cc3ccccc3)CC2)ccc1OC |  | inconclusive: 11.2 µM [inhibitor, single point] |
| CC(=O)Nc1ccc(NC(=O)Cn2c(=O)n(-c3ccc(F)cc3)c(=O)c3oc4ccccc4c32)cc1 |  | inconclusive: 17.8 µM [inhibitor, partial curve, poor fit] |
| Nc1ccc2c(c1)COC2=O |  | inconclusive: 10 µM [activator, partial curve] |
| O=S(=O)(c1c(F)cccc1F)N1CCN(C(=S)NCc2ccc3c(c2)OCO3)CC1 | inactive: 14.1% [at 46.1 µM] |  |
| COc1ccc(Cl)cc1NC(=O)Cc1coc2c(C)c(C)ccc12 |  | inconclusive: 28.2 µM [inhibitor, partial curve, poor fit] |
| CCc1ccc(NC(=O)c2sc3nc4c(cc3c2N)CN(CC)CC4)cc1 |  | inconclusive: 35.5 µM [inhibitor, single point] |

| Structure (SMILES) | activity change, negative = inhibition | Potency |
| --- | --- | --- |
| CC(=O)Nc1ccc(S(=O)(=O)NCC(=O)OCC(=O)c2cc(C)n(-c3ccc4c(c3)OCO4)c2C)cc1 |  | inconclusive: 5.62 µM [activator, single point] |
| COc1ccc(OCC(=O)Nc2ccc(Cl)cc2)cc1 |  | inconclusive: 8.91 µM [inhibitor, single point] |
| Cc1cccc(CSc2nc(N)c(C#N)c(-c3cccs3)c2C#N)c1 |  | inconclusive: 20.6 µM [inhibitor, single point] |
| O=C(Cn1cncn1)N/N=C/c1ccc(Cl)cc1 |  | inconclusive: 11.2 µM [activator, partial curve, poor fit] |
| O=C(c1cc(-c2ccccc2)on1)N1CCc2ccccc2C1 | inactive: 2.08% [at 46.1 µM] |  |
| CCn1cc(C2=NC(C)(C)CO2)c2ccccc21 | inactive: 0.726% |  |
| Nc1ccc(CCN2CCN(c3cccc(C(F)(F)F)c3)CC2)cc1 |  | inconclusive: 17.8 µM [inhibitor, partial curve, poor fit] |
| CCCCn1c(-c2ccco2)nc2ccccc2c1=O | inactive: 3.83% |  |
| COc1ccc(-c2cc(C(=O)N3CC(C)CC(C)C3)c3ccccc3n2)cc1 (stereo unspecified) |  | inconclusive: 35.5 µM [inhibitor, single point] |
| CCCCN(C(=O)CCC(=O)Nc1cc(C)on1)C(C(=O)NC(C)(C)C)c1cccc(OC)c1OC (stereo unspecified) |  | inconclusive: 25.1 µM [inhibitor, single point] |
| CCOc1cc(C(=S)N2CCCC2)ccc1OC | inactive: -1.54% |  |
| Cc1cc(O)c(/C=N/Nc2ccccc2)c(=O)o1 | inactive: -2.19% |  |
| O=C(CN1c2ccccc2Sc2ccccc21)N/N=C/c1ccc(Cl)cc1 |  | inconclusive: 22.4 µM [inhibitor, single point] |
| O=c1c2ccc(Cl)cc2nc2n1CC/C2=C\c1cccc(O)c1 | inactive: 3.93% [at 46.1 µM] |  |
| C#CCN1C(=O)[C@]2(O[C@H](COc3ccccc3)CC3=C2CCC3)c2ccccc21 | inactive: -41.4% [at 14.2 µM] |  |
| COc1ccc(CCNc2nc(-c3ccc(Cl)cc3)cc(C(F)(F)F)n2)cc1OC |  | inconclusive: 2.82 µM [inhibitor, partial curve, poor fit] |
| Cc1ccc(O)c(-c2cc(-c3ccccc3[N+](=O)[O-])[nH]n2)c1 |  | inconclusive: 6.51 µM [activator, single point] |
| N#CC1=C(N)Oc2n[nH]c(-c3cccs3)c2C1C1CCCCC1 (stereo unspecified) |  | inconclusive: 14.1 µM [inhibitor, single point] |
| COc1ccccc1NC(=S)NN1CCN(C)CC1 |  | inconclusive: 10 µM [activator, partial curve, poor fit] |
| COc1ccc(-n2c(C)cc(C(=O)NC3CCCCC3)c2C)cc1 | inactive: -1.78% |  |
| COc1ccc(C2C(C(C)=O)=C(C)N=c3s/c(=C\c4cc(C)n(C)c4C)c(=O)n32)c(OC)c1 (stereo unspecified) |  | inconclusive: 12.6 µM [inhibitor, partial curve, poor fit] |
| O=C(Nc1sc2c(c1C(=O)O)CCCCC2)c1ccccc1 |  | active: 7.08 µM |
| Cc1ccc(-c2cc(C(=O)OCC(=O)c3ccccc3)c3cccc(Cl)c3n2)cc1 | inactive: -0.676% [at 46.1 µM] |  |
| Cc1ccc(C(=O)Nc2nccc(C)n2)cc1 | inactive: -4.35% |  |

| Structure (SMILES) | activity change, negative = inhibition | Potency |
| --- | --- | --- |
| CCn1c(=O)cc(SCC(=O)Nc2cccc(SC)c2)c2ccccc21 | inactive: -14.5% |  |
| CCOC(=O)C1=C(C)Nc2ncnn2C1c1cccnc1 (stereo unspecified) | inactive: -2.25% |  |
| Cc1c(NC2=C(Cl)C(=O)N(c3ccccc3Cl)C2=O)c(=O)n(-c2ccccc2)n1C | inactive: 8.15% |  |
| O=S(=O)(c1ccccc1)c1cnn(-c2ccccc2)c1-c1ccc(Cl)cc1 |  | inconclusive: 11.6 µM [inhibitor, partial curve] |
| COCCSc1ccccc1C(=O)NCC1CCCO1 (stereo unspecified) |  | inconclusive: 1.64 µM [inhibitor, partial curve, poor fit] |
| CCOC(=O)c1cnc(-c2ccccc2)nc1-c1ccccc1 |  | inconclusive: 5.62 µM [inhibitor, single point] |
| Cc1ccc(S(=O)(=O)N/N=C/c2c(F)cccc2Cl)cc1 |  | inconclusive: 5.01 µM [inhibitor, full curve, poor fit] |
| CC(=O)CCc1oc2ccc(C)cc2c1-c1ccccc1 | inactive: 0.942% |  |
| O=C(c1ccc(Cl)cc1)c1cc([N+](=O)[O-])ccc1N1CCOCC1 |  | inconclusive: 0.891 µM [inhibitor, full curve] |
| CN(c1ccc(C(=O)NCCc2ccccc2)cc1)S(C)(=O)=O |  | inconclusive: 11.6 µM [inhibitor, partial curve, poor fit] |
| CC1(C)Cc2ccccc2C(NN=C2CCCC2)=N1 |  | inconclusive: 11.2 µM [activator, partial curve, poor fit] |
| Cc1ccc(C)c(NC(=O)C(Sc2nc3ccccc3c(=O)n2CC(C)C)c2ccccc2)c1 (stereo unspecified) |  | inconclusive: 0.891 µM [inhibitor, full curve, poor fit] |
| Cc1cc(C(=O)N/N=C/C=C/c2ccccc2)n[nH]1 | inactive: -0.105% [at 46.1 µM] |  |
| Brc1ccc(-c2ccc(/C=N/Nc3nc(N4CCOCC4)nc(N4CCOCC4)n3)o2)cc1 |  | active: 3.98 µM |
| COc1ccc(CCNC(=O)c2cc(=O)c3cc(C)cc(C)c3o2)cc1OC | inactive: -21.5% [at 46.1 µM] |  |
| O=C(CSc1c2c(nc3ccc(Cl)cc13)CCCC2)NCc1ccccc1Cl | inactive: 4.8% [at 46.1 µM] |  |
| CC(C)C(NS(=O)(=O)c1cccs1)C(=O)NCc1ccccc1Cl (stereo unspecified) |  | inconclusive: 22.4 µM [inhibitor, single point] |
| CNC(=S)N1CCN(c2ccccc2OC)CC1 |  | inconclusive: 4.11 µM [inhibitor, single point] |
| COc1ccccc1OCC(=O)N/N=C/c1cccc2cccnc12 | inactive: -28.2% |  |
| OC1(c2ccccc2F)CCN(Cc2nnnn2Cc2ccc(F)cc2)CC1 |  | inconclusive: 6.31 µM [activator, single point] |
| CCOC(=O)Oc1ccc(C(=O)OCCCN(C)C)cc1OC | inactive: -25.5% |  |
| O=C(c1ccc(Cl)cc1)c1coc2ccc(O)cc12 | inactive: 4.74% |  |
| CC1CN(S(=O)(=O)c2cccc(C(=O)N=c3sccn3C)c2)CC(C)O1 (stereo unspecified) |  | inconclusive: 6.31 µM [inhibitor, single point] |

One compound at a time (already shown).
CCOC(=O)C1=C(C)Nc2ncnn2C1c1cccnc1 (stereo unspecified) in the list: activity change, negative = inhibition: inactive: -2.25%
O=S(=O)(c1ccccc1)c1cnn(-c2ccccc2)c1-c1ccc(Cl)cc1 in the list: Potency: inconclusive: 11.6 µM [inhibitor, partial curve]
Cc1ccc2c(c1)c1c(n2CC(O)Cn2ccnc2C)C(=O)CCC1 (stereo unspecified) in the list: Potency: inconclusive: 10 µM [inhibitor, partial curve, poor fit]
COc1ccccc1NC(=S)NN1CCN(C)CC1 in the list: Potency: inconclusive: 10 µM [activator, partial curve, poor fit]
